The target of assay [1] is AC6-miniTurbo-FLAG fusion protein (human adenylyl cyclase 6) (human) (UniProt O43306). The assay is described as follows: proximity labelling; BioID: AC-miniTurbo-FLAG baits virally expressed in primary neonatal rat cardiomyocytes, vehicle or 48 h norepinephrine, 50 μM biotin 3 h, RIPA lysis, streptavidin pull-down, LC-MS/MS, SAINT score ≥0.7 against GFP-mT and uninfected controls.

By UniProt entry, the sequences of proteins in these tests, tags left out.
UniProt O43306: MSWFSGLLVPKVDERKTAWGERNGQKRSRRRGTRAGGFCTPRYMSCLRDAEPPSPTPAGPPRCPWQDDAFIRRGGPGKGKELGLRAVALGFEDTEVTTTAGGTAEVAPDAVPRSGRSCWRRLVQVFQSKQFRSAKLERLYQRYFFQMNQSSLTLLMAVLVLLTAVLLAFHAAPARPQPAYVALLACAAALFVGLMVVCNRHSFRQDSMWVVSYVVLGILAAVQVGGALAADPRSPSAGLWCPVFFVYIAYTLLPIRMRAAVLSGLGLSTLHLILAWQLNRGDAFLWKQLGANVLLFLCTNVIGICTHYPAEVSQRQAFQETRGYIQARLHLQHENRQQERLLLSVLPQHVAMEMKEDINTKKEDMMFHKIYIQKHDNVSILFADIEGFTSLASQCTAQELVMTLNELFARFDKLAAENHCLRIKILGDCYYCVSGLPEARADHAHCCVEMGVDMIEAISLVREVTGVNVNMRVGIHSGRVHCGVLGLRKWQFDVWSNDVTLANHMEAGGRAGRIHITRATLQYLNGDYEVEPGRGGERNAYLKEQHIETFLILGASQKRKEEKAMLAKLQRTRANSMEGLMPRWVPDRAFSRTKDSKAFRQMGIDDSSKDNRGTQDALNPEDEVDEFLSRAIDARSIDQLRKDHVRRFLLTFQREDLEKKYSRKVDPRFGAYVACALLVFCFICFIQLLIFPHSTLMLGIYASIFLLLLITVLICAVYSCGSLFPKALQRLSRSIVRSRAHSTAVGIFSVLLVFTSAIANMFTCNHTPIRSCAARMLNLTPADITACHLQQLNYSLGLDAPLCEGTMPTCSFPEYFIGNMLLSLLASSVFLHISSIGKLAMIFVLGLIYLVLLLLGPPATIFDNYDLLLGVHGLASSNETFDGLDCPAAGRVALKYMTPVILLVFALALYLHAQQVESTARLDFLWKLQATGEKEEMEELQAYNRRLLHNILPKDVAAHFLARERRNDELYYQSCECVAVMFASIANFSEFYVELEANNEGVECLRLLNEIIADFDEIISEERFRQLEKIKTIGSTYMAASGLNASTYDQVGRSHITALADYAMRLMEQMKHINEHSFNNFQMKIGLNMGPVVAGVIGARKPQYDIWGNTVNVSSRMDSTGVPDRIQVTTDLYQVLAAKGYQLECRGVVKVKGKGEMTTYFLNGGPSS
UniProt O95622: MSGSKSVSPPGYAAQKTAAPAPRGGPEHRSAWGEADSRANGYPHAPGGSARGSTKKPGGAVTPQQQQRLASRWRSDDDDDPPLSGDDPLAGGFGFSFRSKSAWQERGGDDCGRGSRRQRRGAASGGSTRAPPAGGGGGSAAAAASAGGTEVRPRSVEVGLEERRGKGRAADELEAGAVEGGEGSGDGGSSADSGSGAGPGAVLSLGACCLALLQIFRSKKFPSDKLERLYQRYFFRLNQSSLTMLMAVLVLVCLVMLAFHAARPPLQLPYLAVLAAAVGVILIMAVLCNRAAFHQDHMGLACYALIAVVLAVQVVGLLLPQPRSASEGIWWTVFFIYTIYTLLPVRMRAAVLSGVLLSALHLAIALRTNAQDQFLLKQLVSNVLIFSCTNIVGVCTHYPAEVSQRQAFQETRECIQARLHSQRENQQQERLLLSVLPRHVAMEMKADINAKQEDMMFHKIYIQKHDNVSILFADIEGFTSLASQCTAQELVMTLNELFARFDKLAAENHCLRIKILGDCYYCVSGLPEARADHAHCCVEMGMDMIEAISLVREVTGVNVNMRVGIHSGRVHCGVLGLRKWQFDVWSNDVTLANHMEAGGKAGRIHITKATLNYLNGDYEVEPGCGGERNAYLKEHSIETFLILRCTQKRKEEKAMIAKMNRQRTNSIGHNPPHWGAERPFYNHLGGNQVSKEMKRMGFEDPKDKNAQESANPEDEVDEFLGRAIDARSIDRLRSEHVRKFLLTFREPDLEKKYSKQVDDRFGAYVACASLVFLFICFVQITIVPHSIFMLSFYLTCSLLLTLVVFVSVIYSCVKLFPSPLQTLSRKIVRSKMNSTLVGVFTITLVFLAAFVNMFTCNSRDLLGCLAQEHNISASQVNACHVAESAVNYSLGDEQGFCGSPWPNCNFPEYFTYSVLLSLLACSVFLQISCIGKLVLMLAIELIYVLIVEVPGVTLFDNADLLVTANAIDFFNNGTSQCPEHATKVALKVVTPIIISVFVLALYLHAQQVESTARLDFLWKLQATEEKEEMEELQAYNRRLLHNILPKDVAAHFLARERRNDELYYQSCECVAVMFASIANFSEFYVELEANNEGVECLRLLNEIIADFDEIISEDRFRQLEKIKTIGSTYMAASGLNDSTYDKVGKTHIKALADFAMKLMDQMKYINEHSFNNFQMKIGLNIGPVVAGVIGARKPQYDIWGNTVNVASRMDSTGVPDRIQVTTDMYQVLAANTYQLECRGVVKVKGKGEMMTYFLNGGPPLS

Assay [2] addresses AC5-miniTurbo-FLAG fusion protein (human adenylyl cyclase 5) (human) (UniProt O95622). The description is as above.

Results are given in words; binding and its absence hold for the method and conditions named. In cells and extracts the contact can be indirect. These calls come from enrichment with a bait or labelling near it, and not all partners need be listed.

B1: calsequestrin 2 (CASQ2) (protein, UniProt P51868 20-413)
chain: EEGLNFPTYDGKDRVVSLSEKNLKQVLKRYDLLCLYYHEPVSSDKVAQKQFQLKEIVLELVAQVLEHKNIGFVMVDSRKEAKLAKRLGFSEEGSLYVLKGGRTIEFDGEFAADVLVEFLLDLIEDPVEIVNNKLEVQAFERIEDQIKLLGFFKNEDSEYYKAFQEAAEHFQPYIKFFATFDKGVAKKLSLKMNEVGFYEPFMDEPSVIPNKPYTEEELVEFVKEHQRPTLRPLRPEDMFETWEDDLNGIHIVAFAEKSDPDGYEFLEILKQVARDNTDNPDLSILWIDPDDFPLLVAYWEKTFKIDLFKPQIGVVNVTDADSVWMEIPDDDDLPTAEELEDWIEDVLSGKINTEDDDNEDEDDDGDNDNDDDDDDDDNSDEDNDDSDDDDDDDE
Take B1: the binding entry in assay [1] and in assay [2] was “binds” each time.

B2: PTPN1 (protein, UniProt P20417 1-432)
chain: MEMEKEFEQIDKAGNWAAIYQDIRHEASDFPCRIAKLPKNKNRNRYRDVSPFDHSRIKLHQEDNDYINASLIKMEEAQRSYILTQGPLPNTCGHFWEMVWEQKSRGVVMLNRIMEKGSLKCAQYWPQKEEKEMVFDDTNLKLTLISEDVKSYYTVRQLELENLATQEAREILHFHYTTWPDFGVPESPASFLNFLFKVRESGSLSPEHGPIVVHCSAGIGRSGTFCLADTCLLLMDKRKDPSSVDIKKVLLEMRRFRMGLIQTADQLRFSYLAVIEGAKFIMGDSSVQDQWKELSHEDLEPPPEHVPPPPRPPKRTLEPHNGKCKELFSNHQWVSEESCEDEDILAREESRAPSIAVHSMSSMSQDTEVRKRMVGGGLQSAQASVPTEEELSPTEEEQKAHRPVHWKPFLVNVCMATALATGAYLCYRVCFH
For the molecule B2, the binding entry in assay [2] is “binds”.

B3: Slc12A7 (protein, UniProt Q5RK27 1-1083)
chain: MPTNFTVVPVEARADGAGDEAAERTEEPGSPESADPACPTPGDGNPRENSPFINNVEVERESYFEGKNMALFEEEMDSNPMVSSLLNKLANYTNLSQGVVEHEEDEDSRRREIKAPRMGTFIGVYLPCLQNILGVILFLRLTWIVGAAGVLESFLIVAMCCTCTMLTAISMSAIATNGVVPAGGSYYMISRSLGPEFGGAVGLCFYLGTTFAGAMYILGTIEIFLTYISPSAAIFQAETADGEAAALLNNMRVYGSCALALMAVVVFVGVKYVNKLALVFLACVVLSILAIYAGVIKTAFAPPDIPVCLLGNRTLANRNFDTCAKMQVVSNGTVTTALWRLFCNGSSLGASCDEYFVQNNVTEIQGIPGVASGVFLDNLWSTYSDKGAFVEKKGVSSVPVSEESRPGGLPYVLTDIMTYFTMLVGIYFPSVTGIMAGSNRSGDLKDAQKSIPTGTILAIVTTSFIYLSCIVLFGACIEGVVLRDKFGEALQGNLVIGMLAWPSPWVIVIGSFFSTCGAGLQSLTGAPRLLQAIARDGIIPFLQVFGHGKANGEPTWALLLTALICETGILIASLDSVAPILSMFFLMCYMFVNLACAVQTLLRTPNWRPRFKFYHWTLSFLGMSLCLALMFICSWYYALFAMLIAGCIYKYIEYRGAEKEWGDGIRGLSLNAARYALLRVEHGPPHTKNWRPQVLVMLNLDSEQCVKHPRLLSFTSQLKAGKGLTIVGSVLEGTYLDKHVEAQRAEENIRSLMSAEKMKGFCQLVVSSNLRDGASHLIQSAGLGGMKHNTVLMAWPEAWKQADNPFSWKNFVDTVRDTTAAHQALLVAKNIDLFPQNQERFSDGNIDVWWIVHDGGMLMLLPFLLRQHKVWRKCRMRIFTVAQVDDNSIQMKKDLQMFLYHLRISAEVEVVEMVENDISAFTYEKTLMMEQRSQMLKQMQLSKNEREREAQLIHDRNTASHTVATARTEAPPTPDKVQMTWTKEKLIAEKHRNKDTGTSGFKDLFSLKPDQSNVRRMHTAVKLNGVVLNKSQDAQLVLLNMPGPPKSRQGDENYMEFLEVLTEGLNRVLLVRGGGREVITIYS
Take B3: in assay [2], the binding entry was “binds”.

B4: Slc12A4 (protein, UniProt Q63632 1-1085)
chain: MPHFTVVPVDGPRRGDYDNLEGLSWVDYGERAEREDSDGQGNHRENSPFLSPLDASRGNDYYDRNLALFEEELDIRPKVSSLLGKLVSYTNLTQGAKEHEEAESGEGGRRRAAKAPSMGTLMGVYLPCLQNIFGVILFLRLTWMVGTAGVLQALLIVLICCCCTLLTAISMSAIATNGVVPAGGSYFMISRSLGPEFGGAVGLCFYLGTTFAAAMYILGAIEILLTYIAPPAAIFYPSGTHDMSSATLNNMRVYGTIFLTFMTLVVFVGVKYVNKFASLFLACVIISILSIYVGGIKSAFDPPVFPVCMLGNRTLSRDQFDICAKTVVVDNETVATRLWTFFCHSPNLTADSCDPYFLLNNVTEIPGIPGAAAGVLQENLWSAYLEKGEVVEKHGLPSTDTLGLKESLSLYVVADIATSFTVLVGIFFPSVTGIMAGSNRSGDLRDAQKSIPVGTILAIVTTSLVYFSSVILFGACIEGVVLRDKYGDGVSRNLVVGTLAWPSPWVIVVGSFFSTCGAGLQSLTGAPRLLQAIAKDNIIPFLRVFGHGKANGEPTWALLLTALIAELGILIASLDMVAPILSMFFLMCYLFVNLACAVQTLLRTPNWRPRFKYYHWALSFLGMSLCLALMFVSSWYYALVAMVIAGMIYKYIEYQGAEKEWGDGIRGLSLSAARYALLRLEEGPPHTKNWRPQLLVLLKLDEDLHVKYPRLLTFASQLKAGKGLTIVGSVIQGSFLESYGEAQAAEQTIKNMMEIEKVKGFCQVVVASKVREGLAHLIQSCGLGGMRHNSVVLGWPYGWRQSEDPRAWKTFIDTVRCTTAAHLALLVPKNIAFYPSNHERYLEGHIDVWWIVHDGGMLMLLPFLLRQHKVWKKCRMRIFTVAQMDDNSIQMKKDLAIFLYHLRLEAEVEVVEMHNSDISAYTYERTLMMEQRSQMLRQMRLTKTERDREAQLVKDRHSALRLESLYSDEEDESVTGADKIQMTWTRDKYMAEPWDPSHAPDNFRELVHIKPDQSNVRRMHTAVKLNEVIVTRSHDARLVLLNMPGPPKNSEGDENYMEFLEVLTEGLERVLLVRGGGREVITIYS
On to B4, for which the binding result in assay [2] is “binds”.

B5: prostacyclin synthase (enzyme, UniProt Q62969 1-501)
chain: MSWAALLGLLAVLLLLLLLLSRRRARRPGEPPLDLGSIPWLGHALEFGKDAASFLTRMKEKHGDIFTVLVGGRYVTVLLDPHSYDTVVWDLRTRLDFHPYAIFLMERIFDLQLPNFNPSEEKARMKPTLMHKDLQALTEAMYTNLRTVLLGDSTEGGSGWQEKGLLEFSYSSLLSAGYLTLYGVEASPRTHESQALDRDHSADVFRTFRQLDLMLPKLARGSLSVGDKDHACSVKSRLWKLLSPAGLASRADRSSWLESYLRHLEEMGVSEDMQARALVLQLWATQGNMGPTAFWLLLFLLKNPEALDAVHAELKRIVWQAEKPVLQMTALPQKILDSMPVLDSVLNETLRLTAAPFITREVMADLALPMADRREFSLRRGDRLLLFPFLSPQKDPEIYTEPEVFKYNRFLNPDGSEKKDFYKDGKRLKNYNMPWGAGHNQCLGKSYAINSIKQFVVLLLTHFDLELVSEDTEVPEFDLSRYGFGLMQPEEDVPIRYRTRL
For the molecule B5, in assay [1], the binding entry is “binds”.

B6: Slc33a1 (protein, UniProt Q6AYY8 1-550)
chain: MSPTISHKDNSRQRRSGMFGHALDMKSGPLPPGGWDDNHQDSVGGEGDREVLLGDVGPGDFPKAKRSYRAELSSILLLLFLYVLQGIPLGLAGSIPLILQSKNVSYTDQAFFSFVFWPFSLKLLWAPLVDAVYFKNFGRRKSWLVPTQYILGIFMIYLSTQVDRLLGNIDGRTPDVVALTVTFFLFEFLAATQDIAVDGWALTMLSRENVGYASTCNSVGQTAGYFLGNVLFLALESADFCNKYLRFQPQPRGIVTLSDFLFFWGTVFLITTTLVALLKKETREASVVKEETQGITDTYKLLFSIIKMPAVLAFCLLILTSKIGFSAADAVTGLKLVEEGVPKEHLALLAVPMVPLQIILPLLISKYTAGPQPLNIFYKAMPYRLLLGLEYALLVWWTPKVEHQGGFPIYYYIIVLLSYALHQVTLYSMYVSIMAFNAKVSDPLIGGTYMTLLNTVSNLGGNWPSTVALWLVDPLTVKECVGASNQNCRTPEAIELCKKLGGSCVTALDGYYVESIVCVLIGFGWWFFLGPKFKKLQDEGPSSWKCKRTN
As to B6, the binding result in assay [2] is listed as “binds”.

B7: SPARC (protein, UniProt P16975 18-301)
chain: APQTEAAEEMVAEETVVEETGLPVGANPVQVEMGEFEEGAEETVEEVVAENPCQNHHCKHGKVCELDESNTPMCVCQDPTSCPAPIGEFEKVCSNDNKTFDSSCHFFATKCTLEGTKKGHKLHLDYIGPCKYIAPCLDSELTEFPLRMRDWLKNVLVTLYERDEGNNLLTEKQKLRVKKIHENEKRLEAGDHPVELLARDFEKNYNMYIFPVHWQFGQLDQHPIDGYLSHTELAPLRAPLIPMEHCTTRFFETCDLDNDKYIALEEWAGCFGIKEQDINKDLVI
Regarding B7, the binding result in assay [2] is “binds”.

B8: RASA3 (protein, UniProt Q9QYJ2 1-834)
chain: MAVEEEGLRVFQSVRIKIGEAKNLPSYPGPNKMRDCYCTVNLDQEEVFRTKIVEKSLCPFYGEDFYCEIPRSFRHLSFYIFDRDVFRRDSIIGKVAIQKEDLQRYHNRDTWFQLQHVDADSEVQGKVHLELRLSEVITDTGVVCHKLAARIFECQGLPIVNGQCDPYATVTLAGPFRSEAKKTKVKKKTNNPQFDEVFYFEVTRPCSYSKKSHFDFEEEDVDKLEIRVDLWNASNLKFGDEFLGELRIPLHVLRYASSYEAWYFLQPRDNGSKSVKPDDLGSLRLNVVYTEDHVFSSEYYSPLRDLLLKSADVEPVSASAAHILGEVCRDKQEAAIPLVRLLLHYGRVVPFISAIASAEVKRTQDPNTIFRGNSLTSKCIDETMKLAGMHYLHVTLKPTIEEICQSHKSCEIDPVKLKDGENLENNMESLRQYVDRIFSVITKSGVSCPTVMCDIFFSLREAAAKRFQDDLDVRYTAVSSFIFLRFFAPAILSPNLFQLTPHHTDPQTSRTLTLISKTIQTLGSLSKSKSASFKESYMATFYEFFNEQKYADAVKNFLDLISSSGRRDPKSIEQPILLKEGFMIKRAQGRKRFGMKNFKKRWFRLTNHEFTYQKSKGDQPLCNIPIENILAVERLEEESFRMKNMFQVIQPERALYIQANNCVEAKDWIDILTKVSQCNQKRLTVFHPSAYLNGHWLCCRASSDTAIGCTPCTGGLPANIQLDIDGDRETERIYSLFNLYMGKLEKMQEACGSKSVYDGPEQEEYSTFIIDDPQETYRTLKQVIAGVGTLEQEHAQYRRNKFKKTRYGSQEHPIGDKSFQNYIRQQSEISTHSI
With B8, the binding entry in assay [2] is listed as “binds”.

B9: aquaporin (AQP1) (protein, UniProt P29975 1-269)
chain: MASEIKKKLFWRAVVAEFLAMTLFVFISIGSALGFNYPLERNQTLVQDNVKVSLAFGLSIATLAQSVGHISGAHLNPAVTLGLLLSCQISILRAVMYIIAQCVGAIVASAILSGITSSLLENSLGRNDLARGVNSGQGLGIEIIGTLQLVLCVLATTDRRRRDLGGSAPLAIGLSVALGHLLAIDYTGCGINPARSFGSAVLTRNFSNHWIFWVGPFIGSALAVLIYDFILAPRSSDFTDRMKVWTSGQVEEYDLDADDINSRVEMKPK
Regarding B9, in assay [2], the binding entry was “binds”.

B10: MARCKSL1 (protein, UniProt Q9EPH2 1-199)
chain: MGSQSSKAPRGDVTAEEAAGASPAKANGQENGHVKSNGDLTPKGEGESPPVNGADEAAGATGDAIEPAPPSQEAEAKGEVAPKETPKKKKKFSFKKPFKLSGLSFKRNRKEGGGDSSASSPTEEEQEQGEISACSDEGTAQEGKAAATPESQEPQAKGAEASAVSKGGDAEEEAGPQAAEPSTPSGPESGPASASAENE
For the molecule B10, in assay [2], the binding result is on record as “binds”.

The values above are taken from article PMC12446771.
